Laboratory results: patent publication US20250341517A1, “SWITCHING PEPTIDE, IMMUNOASSAY DEVICE COMPRISING SAME, AND IMMUNOASSAY METHOD USING SAME” (OPTOLANE TECHNOLOGIES INC., priority 2021, published 2025)

Legend:
[1] = test system: Inf-B; experiment: One-step immunoassay detection of Inf-B with switching-peptide-bound binding antibody (FIG. 19, 20D); settings: anti-Inf-B binding antibody bound to the peptide, in PBS; H2 labeled with FAM, L1 labeled with TAMRA
Excerpt: Therefore, an antibody bound to the L1 peptide or the H2 peptide may be used for selective detection of the Inf-B.
Therefore, binding antibodies bound to the two types of peptides may have similar responses upon detection of Inf-A.
In addition, since it can be confirmed that the baseline is maintained in the experiment with CoV strain 229E, which is a negative control, the immunoassay based on the two types of binding antibodies may be used to detect Inf-B in actual samples.
Therefore, the immunoassay device using the switching peptide according to the present disclosure may sensitively detect Inf-B in a much wider detection range than conventional rapid tests, and the one-step immunoassay method according to the present disclosure may be used for much more sensitive detection of Inf-A and Inf-B in the entire detection range compared to conventional rapid tests.

[2] = test system: Inf-A; experiment: One-step immunoassay detection of Inf-A with switching-peptide-bound binding antibody (FIG. 18, 20B); set-up: species or system Influenza A; settings: anti-Inf-A binding antibody bound to the peptide, in PBS; H2 quenched with TQ2, L1 quenched with TQ1

| Sequence | limit of detection (LOD) [1] | limit of detection (LOD) [2] |
| --- | --- | --- |
| TYLEWYPQKPGQSPKLLIYK [L1, TYLEW YPQKP GQSPK LLIYK] | 0.26 ng/mL | 0.15 ng/mL |
| VYYCAREPTGTGIYFDVWGK [H2, VYYCA REPTG TGIYF DVWGK] | 0.04 ng/mL | 0.02 ng/mL |
